About 13,000 (3.2%) of roughly 400,000 compounds were called active. This list was built around the results that the source calls inconclusive (neither active nor inactive); the mix of calls is not that of the screen. Calls follow the shape of the dose curve; as a rule, active = well fitted cell-killing curve with a large enough effect; inconclusive = small, poorly fitted or top-dose-only effect, or effect the other way; inactive = flat fitted curve, though single readings scatter. Potencies of inconclusive entries are doubtful fits and often do not repeat.
Test: qHTS assay for MDR1-selective chemotherapeutics: Primary screen using the drug-selected MDR subline cells KB-V1; also: nearly all actives have a fitted effect of over 60% in size
Conditions: KB-V1 MDR cells viability, CellTiter-Glo, 72 h; activity change, negative = cytotoxicity: at 46.1 µM (top of the series)
Method in brief: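 Cells of the MDR subline KB-V1 are plated, dosed with compound at multiple concentrations, and incubated 72 h at 37 degrees C; CellTiter-Glo is then added and luminescence read after 10 min.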
With CC(=O)Nc1ccc(-n2cc(-c3ccccc3)[nH]c2=S)cc1 the “activity change, negative = cytotoxicity” value was inactive: 22.4%.
In the case of O=C(c1nn(Cc2ccccc2)c(=O)c2ccccc12)N1CCN(c2ccccn2)CC1, the Potency is reported as active: 2.31 µM.
In the case of CS(=O)(=O)c1sc(C(=O)NC(=O)Nc2cccc(C(F)(F)F)c2)c2c1C=CCC2, the “activity change, negative = cytotoxicity” value is reported as inactive: 16.3%.
With Cn1nc(C(=O)N2CCCC2)c2ccccc2c1=O the Potency was inconclusive: 29.1 µM [cytotoxic, single point].
For O=C(NCc1cccnc1)C(=O)NCC(c1ccco1)N1CCN(c2ccc(F)cc2)CC1 (stereo not drawn), the Potency was active: 2.59 µM.
In the case of COc1ccccc1NC(=O)c1oc2ccccc2c1NC(=O)c1cccc(OC)c1OC, the Potency is reported as inconclusive: 32.6 µM [cytotoxic, single point].
For COc1ccc(CCN2C(=O)c3ccccc3C2c2nnnn2C(C)C)cc1OC (stereo not drawn), the Potency was inconclusive: 20.6 µM [cytotoxic, single point].
With Cc1cccc(-n2nc(C(=O)c3ccco3)cc(-c3nc4ccccc4[nH]3)c2=N)c1 the “activity change, negative = cytotoxicity” value was inactive: -1.85%.
In the case of O=S(=O)(Nc1cccc(-n2cnnn2)c1)c1ccc(Cl)nc1, the Potency is reported as inconclusive: 6.51 µM [rising, partial curve, poor fit].
For Cc1ccc(Cl)cc1NC(=O)COC(=O)CN1C(=O)C2CCCCC2C1=O (stereo not drawn), the Potency was inconclusive: 29.1 µM [rising, single point].
In the case of CCn1c2ccccc2c2cc(NC(=O)COc3ccccc3OC)ccc21, the Potency is reported as active: 6.51 µM.
With O=C(NCc1cc(C(F)(F)F)cc(C(F)(F)F)c1)c1cc(-c2cc(F)ccc2OCC2CCCO2)n[nH]1 (stereo not drawn) the “activity change, negative = cytotoxicity” value was inactive: -1.93%.
With CC(C)c1ccc(NC(=O)NC2CCCCC2)cc1 the Potency was inconclusive: 8.2 µM [cytotoxic, partial curve].
For O=C(CCl)Nc1ccc(S(=O)(=O)NC2=NCCCCC2)cc1, the Potency was active: 16.4 µM.
With O=C(Nc1nc2ccccc2[nH]1)Nc1ccccc1F the Potency was inconclusive: 18.4 µM [cytotoxic, single point].
With O=C(COC(=O)C1CCN(S(=O)(=O)c2ccc3c(c2)OCCO3)CC1)NC1CCS(=O)(=O)C1 (stereo not drawn) the Potency was inconclusive: 29.1 µM [cytotoxic, single point].
For CN(Cc1ccc(Cl)cc1Cl)C(=O)CN1C(=O)NC2(CCCC2)C1=O, the Potency was inconclusive: 29.1 µM [cytotoxic, single point].
In the case of O=C(NCCc1ccccc1)C1CCC(=O)N(Cc2ccc(Cl)cc2)C1 (stereo not drawn), the Potency is reported as inconclusive: 16.4 µM [cytotoxic, single point].
For CCCCCn1c(CCNC(=O)c2ccc(F)cc2)nc2ccccc21, the Potency was inconclusive: 25.9 µM [cytotoxic, single point].
With O=C(/C=C/c1ccccc1)c1ccccc1 the Potency was inconclusive: 29.1 µM [cytotoxic, single point].
In the case of COc1ccc(CNC(=O)C2CCC(CNS(=O)(=O)c3cccc4cccnc34)CC2)cc1 (stereo not drawn), the “activity change, negative = cytotoxicity” value is reported as inactive: 5.53%.
With O=C1/C(=C/c2ccc(O)c([N+](=O)[O-])c2)SC(=S)N1Cc1ccccc1 the Potency was inconclusive: 29.1 µM [cytotoxic, single point].
For O=C(CSc1nnc(CNC(=O)c2cccs2)o1)Nc1ccccc1F, the Potency was inconclusive: 20.6 µM [rising, partial curve].
With CCOCCCNC(=O)c1cnc2sc(N3CCCCC3)nn2c1=O the “activity change, negative = cytotoxicity” value was inactive: 0%.
In the case of COc1ccc(N(C)S(=O)(=O)c2cccc(C(=O)Nc3nc4ccccc4[nH]3)c2)cc1, the Potency is reported as active: 16.4 µM.
For Cc1ccccc1N(C(=O)Cc1cccs1)C(C(=O)NC1CCCCC1)c1cn(C)nc1C (stereo not drawn), the Potency was inconclusive: 9.2 µM [cytotoxic, partial curve].
In the case of CC(C)CCNc1nc2c(c(=O)n(Cc3cccc(F)c3)c(=O)n2C)n1C, the Potency is reported as inconclusive: 29.1 µM [cytotoxic, single point].
In the case of CCCCC(=O)Nc1ccc(N2CCN(C(=O)c3ccco3)CC2)cc1, the Potency is reported as inconclusive: 29.1 µM [cytotoxic, single point].
With CCCn1c(C)cc(C(=O)COC(=O)c2ccc[nH]c2=O)c1C the Potency was inconclusive: 18.4 µM [cytotoxic, single point].
In the case of O=C(NCc1ccco1)c1csc(Nc2ccccc2Cl)n1, the Potency is reported as inconclusive: 20.6 µM [cytotoxic, partial curve].
With CCOC(=O)c1sc(NC(=O)CSc2nc(C)cc(C(F)(F)F)n2)c(C#N)c1C the Potency was inconclusive: 29.1 µM [cytotoxic, single point].
For Cc1cc(-c2ccc(C)c(S(=O)(=O)NCc3cccc(Br)c3)c2)on1, the Potency was inconclusive: 0.82 µM [cytotoxic, full curve, poor fit].
For CCCS(=O)(=O)N1CC(=O)N(c2cccc(Cl)c2C)C(C)(C(=O)NC2CCCC2)C1 (stereo not drawn), the “activity change, negative = cytotoxicity” value was inactive: 11.9%.
For O=C(CCN1C(=O)/C(=C/c2ccccc2)SC1=S)NC1CCS(=O)(=O)C1 (stereo not drawn), the “activity change, negative = cytotoxicity” value was inactive: 15.2%.
With Cc1ccc2onc(CC(=O)N3CCN(c4cc(Cl)ccc4C)CC3)c2c1 the Potency was inconclusive: 29.1 µM [cytotoxic, single point].
With CCCn1nnnc1SCC(=O)NCc1ccc(OC)cc1 the “activity change, negative = cytotoxicity” value was inactive: 0.631%.
In the case of CCOC(=O)c1c(N)sc2c1CCC1C(=O)N(C3CCCCC3)C(=O)C21 (stereo not drawn), the Potency is reported as inconclusive: 16.4 µM [cytotoxic, single point].
With O=C1/C(=C/C=C/c2ccccc2)Oc2c1ccc(O)c2CN1CCN(CCO)CC1 the “activity change, negative = cytotoxicity” value was inactive: -5.23%.
In the case of Cc1ccc(N2CC(O)CSC2=Nc2ccccc2)cc1 (stereo not drawn), the Potency is reported as inconclusive: 16.4 µM [cytotoxic, single point].
For COC(=O)[C@H]1C[C@H](OC(=O)NCc2ccccc2F)[C@@]2(O)CN(S(=O)(=O)c3ccc(C)cc3)CC2[C@H]1C(=O)OC (stereo partly drawn), the Potency was inconclusive: 23.1 µM [rising, single point].
In the case of Cn1c(=O)c([N+](=O)[O-])c(-n2cnc3ccccc32)c2ccccc21, the Potency is reported as inconclusive: 18.4 µM [cytotoxic, single point].
In the case of O=C(c1ccc(-c2cccc(Cl)c2Cl)o1)N1CCOCC1, the Potency is reported as inconclusive: 29.1 µM [cytotoxic, single point].
With COc1ccc(CN2CCC2(C)C(=O)Nc2cccc(NS(C)(=O)=O)c2)c2ccccc12 (stereo not drawn) the Potency was active: 2.91 µM.
In the case of COc1ccc(-n2nc(C(=O)N3CCN(c4cccc(C)c4C)CC3)c3c4ccccc4n(C)c3c2=O)cc1Cl, the Potency is reported as inconclusive: 29.1 µM [rising, single point].
For COc1ccc2c(C)cc(SCC(=O)Nc3ncc(Cl)cc3Cl)nc2c1, the Potency was active: 18.4 µM.
For Cc1ccc(SC2CC(=O)N(c3ccc4c(c3)OCCO4)C2=O)cc1 (stereo not drawn), the Potency was inconclusive: 23.1 µM [rising, single point].
For COC(=O)C(C)(C)ONC(=O)Nc1ccccc1Br, the Potency was inconclusive: 29.1 µM [cytotoxic, single point].
With COCc1c(C(=O)N2CCN(Cc3ccc(C#N)cc3)CC2)oc2ccccc12 the Potency was active: 13 µM.
For COc1ccc(OC)c(/C(C)=N\NC(=O)c2cc3cc(Cl)ccc3n2C)c1, the Potency was inconclusive: 29.1 µM [cytotoxic, single point].
For Cc1ccc(NS(=O)(=O)c2ccc(Cl)c(C(=O)Nc3ccccc3-c3nc4ccccc4[nH]3)c2)cc1C, the Potency was active: 7.31 µM.
In the case of COc1ccc2[nH]c(=O)c(CN(Cc3cccs3)C(=S)Nc3cccc(C)c3)cc2c1, the Potency is reported as inconclusive: 3.66 µM [cytotoxic, partial curve].
With O=C(CCn1cccc(C(F)(F)F)c1=O)Nc1cccc(C(F)(F)F)c1 the Potency was inconclusive: 0.0052 µM [cytotoxic, full curve].
In the case of O=C(Nc1ccc(CN2CCOCC2)cc1)c1ccc(N2CCCC2)c([N+](=O)[O-])c1, the Potency is reported as inconclusive: 5.17 µM [cytotoxic, partial curve].
For CCC(=O)Nc1ccc(NC(=O)c2cccc3c(Br)cccc23)cc1, the Potency was inconclusive: 29.1 µM [cytotoxic, single point].
In the case of Cc1noc(C)c1COc1ccccc1C(=O)N1CCN(S(=O)(=O)c2ccccc2F)CC1, the Potency is reported as inconclusive: 11.6 µM [cytotoxic, partial curve, poor fit].
In the case of CC(=O)c1ccc(N2CCN(S(=O)(=O)c3cc(-c4cc(C)no4)ccc3C(C)C)CC2)cc1, the “activity change, negative = cytotoxicity” value is reported as inactive: -12.3%.
For CCOC(=O)C1(Cc2ccccc2C(F)(F)F)CCN(C(=O)c2cc(C)n(C)n2)CC1, the Potency was inconclusive: 23.1 µM [cytotoxic, single point].
With CC(C)C(C)NC(=O)COn1nnc2ccc(S(=O)(=O)N3CCOCC3)cc21 (stereo not drawn) the “activity change, negative = cytotoxicity” value was inactive: 0%.
For Cc1oc(/N=C/c2cccc([N+](=O)[O-])c2)c(C#N)c1C, the “activity change, negative = cytotoxicity” value was inactive: 5.46%.
For Cc1cc(C(=O)NCCCN2CCN(c3cc(Cl)ccc3C)CC2)n(-c2ccccc2)n1, the Potency was inconclusive: 0.326 µM [rising, full curve, poor fit].
In the case of Cc1c(NC(=O)c2cccc(NC(=O)C(C)Oc3ccccc3)c2)c(=O)n(-c2ccccc2)n1C (stereo not drawn), the “activity change, negative = cytotoxicity” value is reported as inactive: 0.0465%.
In the case of Cc1ccc(NC(=O)C(c2ccccc2)N2CCN(CC(=O)N3CCOCC3)CC2)cc1Cl (stereo not drawn), the Potency is reported as inconclusive: 29.1 µM [cytotoxic, single point].
In the case of C[C@H](CO)N1C[C@H](C)[C@H](CN(C)C(=O)Nc2ccccc2F)OCc2cnnn2CCCC1=O, the “activity change, negative = cytotoxicity” value is reported as inactive: 0%.
For CC(=O)Nc1cccc(NC(=O)c2c(-c3ccccc3Cl)noc2C)c1, the Potency was active: 16.4 µM.
In the case of CCn1cc(C(=O)O)c(=O)c2cc(F)c(N/N=C/c3ccccc3)cc21, the Potency is reported as active: 7.31 µM.
With CCOC(=O)Cc1csc(NC(NC(=O)OCC)(C(=O)OCC)C(F)(F)F)n1 (stereo not drawn) the Potency was inconclusive: 10.3 µM [cytotoxic, partial curve, poor fit].
With Cc1scc(C(=O)N/N=C/c2ccc(Cl)s2)c1C the Potency was inconclusive: 18.4 µM [cytotoxic, single point].
With COc1ccc(C(=O)Cc2ccc(OC)c(OC)c2)c(OC)c1 the Potency was active: 13 µM.

Reference: PubChem BioAssay AID1347076 (National Center for Advancing Translational Sciences (NCATS), 2019)
% is scaled to controls: 0 for no effect and ±100 for the full control effect; potency is read from the fitted curve at half-maximal effect.
